The record followed here is article PMC4964976.

No constants are given. Whether binding was seen depends on the method and setting. In cells and extracts the contact can be indirect. Binding can be weak; no strength is given.

For the test, the target named is T1, pyocin S2 immunity protein (P. aeruginosa (strain not stated)) (UniProt Q06579).
T1 sequence: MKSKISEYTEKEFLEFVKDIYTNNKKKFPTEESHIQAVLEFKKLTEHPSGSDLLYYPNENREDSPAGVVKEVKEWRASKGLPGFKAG
Put plainly: co-purification (nickel affinity + size exclusion chromatography); pyocin and immunity protein co-expressed in E. coli BL21(DE3)pLysS, His6 tag on the immunity protein only; HisTrap in 20 mM Tris/HCl, 500 mM NaCl, pH 7.5, 20-500 mM imidazole gradient, then Superdex S200 or S75 in 50 mM Tris/HCl, 200 mM NaCl, pH 7.5. (Size exclusion chromatography separates by hydrodynamic size, large species first.)

Turning to “pyocin S2Δ318 (from UniProt Q06584) (domain or fragment)”, the binding entry is listed as “binds”.
